Results are given in words; binding and its absence hold for the method and conditions named. In cells and extracts the contact can be indirect. Here binding means that the protein was enriched with, or labelled near, the bait; the list need not be complete.
Molecular target: SMARCC1 (human (endogenous in TOV21G)) (UniProt Q92922)
Assay: affinity purification with mass spectrometry; endogenous SWI/SNF complex immunoprecipitated by SMARCC1 from nuclear fractions of parental and resistant TOV21G cells; LC-MS/MS, stoichiometry normalised to SMARCC1

The chains behind the UniProt entries cited, without tags or fusion partners.
UniProt Q92922: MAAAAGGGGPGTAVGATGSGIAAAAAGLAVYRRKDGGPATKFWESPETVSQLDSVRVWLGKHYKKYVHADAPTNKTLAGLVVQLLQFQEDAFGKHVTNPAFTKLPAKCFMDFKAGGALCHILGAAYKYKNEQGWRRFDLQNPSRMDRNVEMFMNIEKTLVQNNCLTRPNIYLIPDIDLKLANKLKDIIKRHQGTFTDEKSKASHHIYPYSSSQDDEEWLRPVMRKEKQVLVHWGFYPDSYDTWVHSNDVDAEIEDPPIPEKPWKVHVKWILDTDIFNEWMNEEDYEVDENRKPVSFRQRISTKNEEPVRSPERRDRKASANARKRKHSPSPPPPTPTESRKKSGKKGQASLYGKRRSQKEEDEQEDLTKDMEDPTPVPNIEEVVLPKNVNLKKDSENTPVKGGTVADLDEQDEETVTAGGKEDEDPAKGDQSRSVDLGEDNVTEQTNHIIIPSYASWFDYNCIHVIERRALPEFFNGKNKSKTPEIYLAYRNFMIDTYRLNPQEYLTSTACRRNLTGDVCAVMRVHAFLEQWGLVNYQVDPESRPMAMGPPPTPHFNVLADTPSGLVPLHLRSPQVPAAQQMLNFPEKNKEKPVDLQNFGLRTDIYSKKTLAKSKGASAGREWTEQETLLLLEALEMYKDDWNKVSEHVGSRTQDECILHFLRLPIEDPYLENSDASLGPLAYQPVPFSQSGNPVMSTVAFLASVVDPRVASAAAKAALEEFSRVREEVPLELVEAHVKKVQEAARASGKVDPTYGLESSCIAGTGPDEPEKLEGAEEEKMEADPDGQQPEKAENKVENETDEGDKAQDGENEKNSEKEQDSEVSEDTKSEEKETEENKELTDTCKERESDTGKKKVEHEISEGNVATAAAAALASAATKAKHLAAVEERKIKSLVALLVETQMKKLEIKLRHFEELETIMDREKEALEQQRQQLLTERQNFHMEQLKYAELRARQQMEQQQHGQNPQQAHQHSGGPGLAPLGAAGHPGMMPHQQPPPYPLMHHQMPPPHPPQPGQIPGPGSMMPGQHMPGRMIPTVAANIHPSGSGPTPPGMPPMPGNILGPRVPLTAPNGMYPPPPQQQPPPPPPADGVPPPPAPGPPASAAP
UniProt P51531: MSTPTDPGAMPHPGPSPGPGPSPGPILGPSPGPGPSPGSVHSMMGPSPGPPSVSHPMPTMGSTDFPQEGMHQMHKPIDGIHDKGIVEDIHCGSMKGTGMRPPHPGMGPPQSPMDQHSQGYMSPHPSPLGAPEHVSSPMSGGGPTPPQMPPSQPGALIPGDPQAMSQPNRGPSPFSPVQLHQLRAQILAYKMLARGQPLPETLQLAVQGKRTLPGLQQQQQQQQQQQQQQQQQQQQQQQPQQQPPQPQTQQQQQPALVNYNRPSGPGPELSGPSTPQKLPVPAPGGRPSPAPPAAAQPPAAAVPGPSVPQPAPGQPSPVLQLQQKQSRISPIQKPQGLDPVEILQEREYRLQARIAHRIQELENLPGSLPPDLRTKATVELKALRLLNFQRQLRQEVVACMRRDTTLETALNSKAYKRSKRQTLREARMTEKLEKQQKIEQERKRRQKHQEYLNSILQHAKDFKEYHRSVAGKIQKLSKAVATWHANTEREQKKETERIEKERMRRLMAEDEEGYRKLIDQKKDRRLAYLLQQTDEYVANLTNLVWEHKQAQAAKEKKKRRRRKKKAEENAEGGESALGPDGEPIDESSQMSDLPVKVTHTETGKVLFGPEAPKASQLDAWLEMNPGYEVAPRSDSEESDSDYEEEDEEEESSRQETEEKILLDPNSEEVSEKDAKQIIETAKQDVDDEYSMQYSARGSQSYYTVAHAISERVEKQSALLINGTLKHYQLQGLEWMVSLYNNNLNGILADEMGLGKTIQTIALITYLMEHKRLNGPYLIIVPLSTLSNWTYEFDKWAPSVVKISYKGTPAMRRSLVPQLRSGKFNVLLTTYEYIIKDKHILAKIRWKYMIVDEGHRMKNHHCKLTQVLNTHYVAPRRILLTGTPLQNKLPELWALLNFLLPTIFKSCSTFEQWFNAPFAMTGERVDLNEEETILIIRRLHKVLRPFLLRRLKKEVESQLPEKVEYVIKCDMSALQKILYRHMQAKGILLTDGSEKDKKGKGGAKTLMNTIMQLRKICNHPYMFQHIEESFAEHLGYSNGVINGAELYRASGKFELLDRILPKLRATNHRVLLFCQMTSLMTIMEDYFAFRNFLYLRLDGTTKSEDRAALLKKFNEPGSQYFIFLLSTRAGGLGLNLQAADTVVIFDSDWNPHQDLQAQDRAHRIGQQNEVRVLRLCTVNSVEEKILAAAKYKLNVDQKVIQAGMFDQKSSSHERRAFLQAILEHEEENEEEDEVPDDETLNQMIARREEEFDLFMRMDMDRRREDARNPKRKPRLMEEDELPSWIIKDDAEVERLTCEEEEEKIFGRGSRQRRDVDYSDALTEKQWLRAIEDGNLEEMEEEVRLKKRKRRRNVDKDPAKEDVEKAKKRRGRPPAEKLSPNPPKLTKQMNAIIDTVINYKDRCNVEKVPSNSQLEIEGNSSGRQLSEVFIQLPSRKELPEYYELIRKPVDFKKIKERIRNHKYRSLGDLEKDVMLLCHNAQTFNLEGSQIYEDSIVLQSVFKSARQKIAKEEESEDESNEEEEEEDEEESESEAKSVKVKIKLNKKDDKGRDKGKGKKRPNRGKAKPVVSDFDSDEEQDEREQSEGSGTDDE

binding: binds
Substance: SMARCA2 (from UniProt P51531 1-1590)

From PMC6175882
